Assay results from doi:10.1101/2022.10.11.511671.
No constants are given. Whether binding was seen depends on the method and setting. In cells and extracts the contact can be indirect. Some results given as binding are weak or reduced against the parent protein; the word gives no strength. For some assays here: Sequences can lack the tags named with a protein. Values belong to the binder of their own block, whether it stands above or below them.

What was measured:
[1] = target: T1, Flag-tagged TBK1 (TANK-binding kinase 1) (UniProt Q9UHD2); assay: co-IP
T1 sequence: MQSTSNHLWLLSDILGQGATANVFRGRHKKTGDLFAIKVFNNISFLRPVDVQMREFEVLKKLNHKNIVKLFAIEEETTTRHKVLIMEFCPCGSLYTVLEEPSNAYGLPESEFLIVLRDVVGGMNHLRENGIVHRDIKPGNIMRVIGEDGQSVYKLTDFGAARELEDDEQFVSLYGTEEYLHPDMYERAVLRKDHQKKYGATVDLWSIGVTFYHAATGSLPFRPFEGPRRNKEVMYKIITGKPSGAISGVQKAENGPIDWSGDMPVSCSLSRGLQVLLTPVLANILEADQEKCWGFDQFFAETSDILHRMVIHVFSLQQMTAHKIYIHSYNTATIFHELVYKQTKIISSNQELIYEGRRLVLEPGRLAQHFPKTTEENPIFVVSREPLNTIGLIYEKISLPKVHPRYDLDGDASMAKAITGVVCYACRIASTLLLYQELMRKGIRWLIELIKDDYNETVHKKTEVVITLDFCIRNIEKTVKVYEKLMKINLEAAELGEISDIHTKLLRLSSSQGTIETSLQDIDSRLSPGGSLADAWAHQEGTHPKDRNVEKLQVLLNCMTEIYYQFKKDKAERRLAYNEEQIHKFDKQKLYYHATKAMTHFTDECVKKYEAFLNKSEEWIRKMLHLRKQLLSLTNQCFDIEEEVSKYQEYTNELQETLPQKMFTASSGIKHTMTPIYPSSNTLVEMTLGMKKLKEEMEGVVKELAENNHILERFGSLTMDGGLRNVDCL

[2] = target: T2, TBK1 (TANK-binding kinase 1), endogenous (human (endogenous in HT1080)) (UniProt Q9UHD2); assay: co-IP
T2 sequence: T1 sequence

- binding [1]: binds
B1: HA-tagged IKKε (enzyme, UniProt Q14164 1-716)
chain: MQSTANYLWHTDDLLGQGATASVYKARNKKSGELVAVKVFNTTSYLRPREVQVREFEVLRKLNHQNIVKLFAVEETGGSRQKVLVMEYCSSGSLLSVLESPENAFGLPEDEFLVVLRCVVAGMNHLRENGIVHRDIKPGNIMRLVGEEGQSIYKLTDFGAARELDDDEKFVSVYGTEEYLHPDMYERAVLRKPQQKAFGVTVDLWSIGVTLYHAATGSLPFIPFGGPRRNKEIMYRITTEKPAGAIAGAQRRENGPLEWSYTLPITCQLSLGLQSQLVPILANILEVEQAKCWGFDQFFAETSDILQRVVVHVFSLSQAVLHHIYIHAHNTIAIFQEAVHKQTSVAPRHQEYLFEGHLCVLEPSVSAQHIAHTTASSPLTLFSTAIPKGLAFRDPALDVPKFVPKVDLQADYNTAKGVLGAGYQALRLARALLDGQELMFRGLHWVMEVLQATCRRTLEVARTSLLYLSSSLGTERFSSVAGTPEIQELKAAAELRSRLRTLAEVLSRCSQNITETQESLSSLNRELVKSRDQVHEDRSIQQIQCCLDKMNFIYKQFKKSRMRPGLGYNEEQIHKLDKVNFSHLAKRLLQVFQEECVQKYQASLVTHGKRMRVVHETRNHLRLVGCSVAACNTEAQGVQESLSKLLEELSHQLLQDRAKGAQASPPPIAPYPSPTRKDLLLHMQELCEGMKLLASDLLDNNRIIERLNRVPAPPDV

- binding [2]: binds
B2: IKKε, endogenous (enzyme, UniProt Q14164 1-716)
chain: B1 chain
